Assay: Quantity of peptide immobilized on 96-well plates by amino acid analysis
Procedure: The peptide was diluted in sterile PBS. Samples containing the peptide to be assayed were lyophilized by evaporation. They were deposited in a reactor and placed under vacuum in order to eliminate oxygen likely to oxidize certain amino acids. Hydrolysis of the peptide bonds was carried out in a hydrochloric acid mixture (HCL 6N, ⅔), trifluoroacetic acid (TFA, ⅓) at 150° C. for 45 minutes. Gas hydrolysis prevented contamination by ions present in the acids. The samples were then dried and dissolved in a suitable buffer for ion-exchange chromatography (sodium citrate). Ion-exchange chromatography makes it possible to separate amino acids according to their ionic strength and, on leaving the column, they react with a reagent (ninhydrin) to form a dyed complex with primary amines (violet, readable at 570 nm). Ninhydrin also reacts with secondary amines (proline, hydroxyproline) to form a yellow compound that can be read at 440 nm. Two separate chromatograms allow the samples to be analysed.
A semi-automatic Beckman 6300 analyser optimised for this analysis was used along with Beckman Gold software in order to quantify the chromatograms. The results were transferred to an MS-Excel table with a macro to enable calculation of relative compositions.
The cell adhesion experiments conducted with the peptide require a preliminary step to immobilize the peptide on 96-well plates. […] The solutions were then removed by aspiration and the peptide is immobilized on the surface, ready to interact with cells added during the cell adhesion test itself. […]
FIG. 17 gives the data obtained in the experiments aimed at identifying the assay conditions for the peptide deposited in 96-well plates and not immobilized. Five experiments were carried out with decreasing quantities of peptide, from 5 μg to 0.7 μg. For each condition, a given quantity of peptide was deposited in 3 different wells (100 μg/well) on a 96-well plate. […] This further signifies that the difference between starting quantity and supernatant quantity was too low to be detected and was certainly within the deviation range from the assay mean for the starting solution. The experiment was therefore repeated with lower quantities of peptide deposited in the wells: 3.55 μg, 2.56 μg, 1.23 μg and 0.73 μg. These quantities of peptide were sufficient to carry out the experiment since we obtained equivalent results for these four conditions. The quantity of peptide remaining in the supernatant after immobilization is approximately 90% of the quantity of peptide added.
A second step involved using two different peptide quantities (Q1 and Q2) to carry out the assay on a larger number of samples (FIG. 18). […] Five different wells on the 96-well plate received quantity Q1 (volume 100 μl) and five other well received quantity Q2 (volume 100 μl). […]

## TALRIRATYGEY (Human laminin 5) [Peptide 1]
Q1, 2.44 μg
  peptide immobilized: 9.3%
  peptide remained in solution after immobilization: 90.7%
Q2, 1.09 μg
  peptide quantity not immobilized: 92%
Q2, mean starting quantity 1.09 μg, five supernatants, 18 hours at +4° C.
  mean quantity in the supernatants after immobilization: 1.002 µg
